{"source": "PubChem BioAssay AID743454, Peter MacCallum Cancer Centre – 2014", "purpose": "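Search for knock-downs that restore vorinostat killing in resistant colon cancer cells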 (primary screen)", "system": "human HCT116-VR colon cancer cells, selected for vorinostat resistance", "reagent": "siRNA pool against human genes, 40 nM siRNA pool", "time to read-out": "vorinostat for 24 h, read-out about 72 h after transfection", "conditions": "vorinostat at 2.5 µM final", "detection": "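Cell viability by CellTiter-Fluor and caspase 3/7 activity by luminescence, each scaled to mock wells per plate, duplicates averaged, then robust z-scored over all plates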", "direction": "viability robust z-score: higher = more viable cells than screen typical; caspase robust z-score: higher = more caspase 3/7 activity than screen typical", "rule for the call": "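Hits are knock-downs in viability class RV1/RV2 or caspase class CA1/CA2, excluding ones that killed cells in the no-drug cell-count arm; hits then retested with single siRNAs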", "note": "This is one part, drawn at random, of about 18,000 deposited reagents. 450 of all reagents (2.5%) were called active. 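Single biological run; no consistent viability z cut-off exists, so the class columns, not z-scores, define the calls.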 A number with no mark means an inactive call."}
The opening 2 entries as a preview:
{"Gene": "MEX3A", "viability hit class": "no change", "caspase hit class": "no change", "viability robust z-score": 0.26, "caspase robust z-score": -0.66}
{"Gene": "HEATR6", "viability hit class": "no change", "caspase hit class": "no change", "viability robust z-score": 0.68, "caspase robust z-score": -0.55}

The list itself, repeating the preview:
{"Gene": "MEX3A", "viability hit class": "no change", "caspase hit class": "no change", "viability robust z-score": 0.26, "caspase robust z-score": -0.66}
{"Gene": "HEATR6", "viability hit class": "no change", "caspase hit class": "no change", "viability robust z-score": 0.68, "caspase robust z-score": -0.55}
{"Gene": "RAPGEF3", "viability hit class": "no change", "caspase hit class": "no change", "viability robust z-score": -1.07, "caspase robust z-score": 3.17}
{"Gene": "PHKA2", "viability hit class": "no change", "caspase hit class": "no change", "viability robust z-score": -0.78, "caspase robust z-score": -0.57}
{"Gene": "PENK", "viability hit class": "no change", "caspase hit class": "no change", "viability robust z-score": -0.34, "caspase robust z-score": -0.86}
{"Gene": "BCL7C", "viability hit class": "no change", "caspase hit class": "no change", "viability robust z-score": 1.08, "caspase robust z-score": -0.24}
{"Gene": "CCSAP", "viability hit class": "no change", "caspase hit class": "no change", "viability robust z-score": -0.09, "caspase robust z-score": -0.48}
{"Gene": "DDX59", "viability hit class": "no change", "caspase hit class": "no change", "viability robust z-score": 1.09, "caspase robust z-score": -0.2}
{"Gene": "COL15A1", "viability hit class": "no change", "caspase hit class": "no change", "viability robust z-score": -0.38, "caspase robust z-score": 2.8}
{"Gene": "KIAA2013", "viability hit class": "no change", "caspase hit class": "no change", "viability robust z-score": -2.14, "caspase robust z-score": 3.08}
{"Gene": "CLNS1A", "viability hit class": "no change", "caspase hit class": "no change", "viability robust z-score": -0.07, "caspase robust z-score": 1.27}
{"Gene": "B4GALT5", "viability hit class": "no change", "caspase hit class": "no change", "viability robust z-score": -0.44, "caspase robust z-score": 0.12}
{"Gene": "PLVAP", "viability hit class": "RV2 (reduced viability) (active)", "caspase hit class": "no change", "viability robust z-score": -2.91, "caspase robust z-score": 0.5}
{"Gene": "CYSLTR2", "viability hit class": "no change", "caspase hit class": "no change", "viability robust z-score": -0.48, "caspase robust z-score": -0.3}
{"Gene": "SIRPD", "viability hit class": "no change", "caspase hit class": "no change", "viability robust z-score": 0.77, "caspase robust z-score": -0.52}
{"Gene": "SOCS2", "viability hit class": "no change", "caspase hit class": "no change", "viability robust z-score": -0.88, "caspase robust z-score": -0.27}
{"Gene": "CHAD", "viability hit class": "no change", "caspase hit class": "no change", "viability robust z-score": -0.06, "caspase robust z-score": -0.28}
{"Gene": "MFAP3L", "viability hit class": "no change", "caspase hit class": "no change", "viability robust z-score": -1.29, "caspase robust z-score": -0.94}
{"Gene": "MGMT", "viability hit class": "no change", "caspase hit class": "no change", "viability robust z-score": -0.43, "caspase robust z-score": -0.89}
{"Gene": "ACTMAP", "viability hit class": "no change", "caspase hit class": "no change", "viability robust z-score": 0.38, "caspase robust z-score": 3.78}
{"Gene": "ALDH1L2", "viability hit class": "no change", "caspase hit class": "no change", "viability robust z-score": -0.61, "caspase robust z-score": 1.63}
